The values that follow come from article doi:10.1101/2023.02.24.529973.

Sequences of proteins named here, by UniProt entry; tags and fusion partners are left off. A change or cut given only in a name is not applied to a line headed by its entry. Residues count along the entry.
UniProt P9WMK7, 3-216, stated change not applied: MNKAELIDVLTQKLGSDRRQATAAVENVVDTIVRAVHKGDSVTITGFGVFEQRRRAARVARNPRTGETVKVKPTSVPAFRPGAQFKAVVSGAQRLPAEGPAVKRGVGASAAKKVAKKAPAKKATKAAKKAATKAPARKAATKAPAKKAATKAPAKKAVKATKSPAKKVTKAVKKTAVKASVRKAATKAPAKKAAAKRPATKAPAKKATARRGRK

Results are given in words; binding and its absence hold for the method and conditions named. Binding seen in cells or lysates may run through a third protein. These calls come from enrichment with a bait or labelling near it, and not all partners need be listed.

This test addresses Mtb histone like protein HU (MtHU) (Mycobacterium tuberculosis H37Ra (endogenous in Mtb H37Ra lysate)) (UniProt P9WMK7). Description: affinity purification with mass spectrometry.

As to “Rv2067c, methyltransferase of Mycobacterium tuberculosis (endogenous, Mtb H37Ra lysate) (from UniProt P9WLL9 1-407) (enzyme)”, the binding result is listed as “binds”.
